Reference: the supplement of paper PMC10338343
± gives the standard deviation. Only a part is listed here, and it is no random draw. Many of these values have a large error.

system: EfPiwi piRISC loaded with piRNA #1 (26 nt); assay: pre-steady-state target cleavage rate (min^-1); guide: piRNA #1 5'p-UGAGGUAGUAGGUUGUAUAGUAUCCA; MIWI and MILI are mouse PIWI proteins and EfPiwi is from a freshwater sponge; tags in brackets are library labels; higher = faster piRNA-guided slicing of the target; conditions: auxiliary factor: 500 nM Ephydatia muelleri Gtsf1
Outline: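 The pre-steady-state cleavage rate was obtained by Cleave-'n-Seq with a burst-and-steady-state fit. A transcribed, DNA-blocked target RNA library (0.1 nM) was mixed with 1 nM active affinity-purified piRISC carrying one synthetic guide, with or without 500 nM GTSF1 partner protein, in HEPES–potassium acetate buffer at 33 °C for 0–8 or 0–960 min. Uncleaved targets were sequenced and normalised to depth and to weakly complementary targets, with three trials pooled and k3 capped at 0.0001 min^-1.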

Sequence	pre-steady-state target cleavage rate
GGAGACCUAUGUAUUACAACCUACUACCUCA	0.0036 ± 0.0033
GGAGACCUAUCUAUACAACCUACGUACCUCA	0.00113 ± 0.0086
GGAGACCUUACUAUACAACCUACUACGAGA	0.00452 ± 0.0025
GGAGUGGUAUCUAUACAACCUACUACCUCA	0.0613 ± 0.023
GGAGUGCAAACUAUACAACCUACUACCUCA	0.00676 ± 0.0044
GGAGAGGAUACUUUACAACCUACUACCUCA	0.00667 ± 0.0036
GGAGACGAUUCUAUACAACCAACUACCUCA	0.00258 ± 0.0018
GGAGACCUAAGUAUACAAGCUACUACCUCA	0.00331 ± 0.0046
GGAGUGGAUACUAUACAACCUACUACCACA	0.00561 ± 0.0019
GGAGACCAUACUAUACUACCUACUAGCUCA	0.0033 ± 0.0038
GGAGUGGAUACUAUACAAGCUACUAGCUCA	0.00331 ± 0.0021
GGAGACCUAACAAUACAAGCUACUACCUCA	0.0028 ± 0.0046
GGAGUCGAUACUAUACAACCUACUAGCUCA	0.00304 ± 0.0019
GGAGUGGAUACUAUACUACCUACUAGCUCA	0.0027 ± 0.0021
GGAGAGGAUACUAAACAACCUACUACGUCA	0.00195 ± 0.0024
GGAGAGGAUUGAAUACAACCUACUACCUCA	0.00721 ± 0.0044
GGAGACCUAACUAUACUACCUACAACCUCA	0.00129 ± 0.0063
GGAGACCAUUGAAUACAACCUACUACCUCA	0.00581 ± 0.0033
GGAGACCUUACUAUACAACGUACUACCUCA	0.00318 ± 0.0019
GGAGACCAUACUAUACAACCUACUUCCUGA	0.00388 ± 0.0027
GGAGACCUUACUAUACAACCUACUACGUCA	0.00584 ± 0.0027
GGAGACCUAUGAUAUGUUGCUCCUACCUCA	0.000557 ± 0.011
GGAGACCUAACUAUUCAACCUAGUACCUCA	0.00265 ± 0.0045
GGAGACCAAACUAUAGAACCUACUACCUCA	0.00258 ± 0.0035

Reprinted from the results shown for reference:
Sequence	pre-steady-state target cleavage rate
GGAGACCUUACUAUACAACCUACUACGAGA	0.00452 ± 0.0025
GGAGUGGUAUCUAUACAACCUACUACCUCA	0.0613 ± 0.023
GGAGUGCAAACUAUACAACCUACUACCUCA	0.00676 ± 0.0044
GGAGAGGAUACUUUACAACCUACUACCUCA	0.00667 ± 0.0036
GGAGACGAUUCUAUACAACCAACUACCUCA	0.00258 ± 0.0018
GGAGACCUAAGUAUACAAGCUACUACCUCA	0.00331 ± 0.0046
GGAGUGGAUACUAUACAACCUACUACCACA	0.00561 ± 0.0019
